# Assay results as given in article PMC7862700.
# This is a selection; strong and weak results do not stand in their true shares. At the low end of the ranking, values are background and their order means little.
# Tests used:
# Assay in all cases: DAPPL (digital affinity profiling via proximity ligation, sequencing)
# Settings in all cases: 10 mM Tris-HCl pH 7.5, 50 mM NaCl, 1 mM DTT, 4% glycerol, room temperature, 30 min; GST-TFs on glutathione beads, 16-mer random dsDNA library, 0.1% …; high values mean tight binding; double strand, one strand shown; scale: fold enrichment (6-mer frequency, TF over GST control)
# ELK1 = molecular target: T1, ELK1 (UniProt P19419)
# T1 sequence: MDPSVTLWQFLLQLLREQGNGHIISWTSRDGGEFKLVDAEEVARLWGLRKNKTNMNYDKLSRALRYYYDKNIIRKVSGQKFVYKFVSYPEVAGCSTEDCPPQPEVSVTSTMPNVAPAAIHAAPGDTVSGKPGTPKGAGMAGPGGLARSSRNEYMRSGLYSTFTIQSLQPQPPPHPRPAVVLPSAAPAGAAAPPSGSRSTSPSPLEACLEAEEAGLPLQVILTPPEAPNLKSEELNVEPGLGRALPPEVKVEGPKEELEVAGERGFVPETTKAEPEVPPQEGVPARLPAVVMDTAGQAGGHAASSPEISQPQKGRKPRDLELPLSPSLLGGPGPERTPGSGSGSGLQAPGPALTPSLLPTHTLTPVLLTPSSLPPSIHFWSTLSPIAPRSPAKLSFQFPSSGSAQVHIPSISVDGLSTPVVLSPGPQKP
# ELK3 = molecular target: T2, ELK3 (UniProt P41970)
# T2 sequence: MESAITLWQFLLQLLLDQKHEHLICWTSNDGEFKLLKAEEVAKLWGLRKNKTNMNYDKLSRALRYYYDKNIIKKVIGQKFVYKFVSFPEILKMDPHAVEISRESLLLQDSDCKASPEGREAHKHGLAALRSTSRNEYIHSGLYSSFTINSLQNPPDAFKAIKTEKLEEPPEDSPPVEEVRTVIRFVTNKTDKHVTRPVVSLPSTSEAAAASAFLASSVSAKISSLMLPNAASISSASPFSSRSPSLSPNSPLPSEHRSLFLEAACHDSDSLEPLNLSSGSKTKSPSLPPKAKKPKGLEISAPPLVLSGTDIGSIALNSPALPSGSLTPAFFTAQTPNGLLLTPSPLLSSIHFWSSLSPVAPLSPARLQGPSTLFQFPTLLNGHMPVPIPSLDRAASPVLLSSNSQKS
# SPIC = molecular target: T3, SPIC (UniProt Q8N5J4)
# T3 sequence: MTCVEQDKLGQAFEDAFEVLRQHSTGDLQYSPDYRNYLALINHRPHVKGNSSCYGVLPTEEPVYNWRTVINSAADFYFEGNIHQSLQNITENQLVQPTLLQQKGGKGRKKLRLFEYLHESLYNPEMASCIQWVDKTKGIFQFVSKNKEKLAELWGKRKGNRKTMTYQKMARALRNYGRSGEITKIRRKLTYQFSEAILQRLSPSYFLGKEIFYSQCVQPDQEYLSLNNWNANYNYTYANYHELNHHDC
# ETS2 = molecular target: T4, ETS2 (UniProt P15036)
# T4 sequence: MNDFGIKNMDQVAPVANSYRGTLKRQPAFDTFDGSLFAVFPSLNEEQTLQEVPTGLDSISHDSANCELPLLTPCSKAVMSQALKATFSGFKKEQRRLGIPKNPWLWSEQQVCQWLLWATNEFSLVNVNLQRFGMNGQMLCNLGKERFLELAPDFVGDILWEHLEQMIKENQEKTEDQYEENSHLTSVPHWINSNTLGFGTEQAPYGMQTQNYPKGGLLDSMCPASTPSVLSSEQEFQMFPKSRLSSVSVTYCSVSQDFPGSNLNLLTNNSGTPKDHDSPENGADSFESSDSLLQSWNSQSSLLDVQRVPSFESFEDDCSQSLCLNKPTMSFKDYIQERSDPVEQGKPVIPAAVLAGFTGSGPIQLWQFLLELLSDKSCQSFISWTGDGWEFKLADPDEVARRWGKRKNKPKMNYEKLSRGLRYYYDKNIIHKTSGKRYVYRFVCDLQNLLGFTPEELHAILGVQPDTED
# ETV3 = molecular target: T5, ETV3 (UniProt P41162-2)
# T5 sequence: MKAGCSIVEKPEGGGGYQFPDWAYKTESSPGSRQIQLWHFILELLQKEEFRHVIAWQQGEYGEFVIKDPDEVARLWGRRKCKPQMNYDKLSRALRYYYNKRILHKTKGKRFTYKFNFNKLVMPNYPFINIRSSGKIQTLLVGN
Sequence,binding signal (ELK1),binding signal (ELK3),binding signal (SPIC),binding signal (ETS2),binding signal (ETV3)
GCATCA,0.801,0.801,0.802,0.734,0.723
GAGCGT,0.363,0.361,0.312,0.319,0.346
CCGTAG,0.879,1.02,0.904,0.796,0.876
CGTGGT,0.582,0.64,0.592,0.564,0.594
GGGAAC,0.755,0.666,0.802,0.692,0.68
GGACAC,0.781,0.753,0.716,0.814,0.807
TGCCAG,0.638,0.617,0.675,0.685,0.678
CGGTAC,0.921,0.889,0.947,0.978,0.942
CGGCCG,0.852,0.87,0.815,0.795,0.875
GTTAGT,0.831,0.8,0.722,0.808,0.896
CCCGGG,0.828,0.659,0.831,0.807,0.8
ACTGTG,0.444,0.501,0.435,0.507,0.469
GAGACT,0.399,0.469,0.447,0.417,0.431
GGGCTG,0.92,0.879,0.799,0.922,0.879
AGGGAG,0.405,0.335,0.377,0.369,0.337
GGCAAC,0.925,0.839,0.869,0.902,0.857
GTCAAG,0.797,0.873,0.759,0.808,0.742
GGGGAC,0.456,0.443,0.424,0.456,0.445
GGCGCG,0.623,0.584,0.69,0.634,0.637
AGATAG,0.766,0.881,0.925,0.835,0.845

# Just binding signal (ELK1) and binding signal (ETV3), for some of the entries so far:
Sequence	binding signal (ELK1)	binding signal (ETV3)
GGGCTG	0.92	0.879
AGGGAG	0.405	0.337
